Experimental data: the supplement of paper PMC10849652
The list shows a part of the results.

Chains of the proteins cited; added tags and fusions are not shown. Lines headed by an entry give the natural chain unless they say otherwise; changes in a name come on top.
UniProt P07947, whole entry, looked up: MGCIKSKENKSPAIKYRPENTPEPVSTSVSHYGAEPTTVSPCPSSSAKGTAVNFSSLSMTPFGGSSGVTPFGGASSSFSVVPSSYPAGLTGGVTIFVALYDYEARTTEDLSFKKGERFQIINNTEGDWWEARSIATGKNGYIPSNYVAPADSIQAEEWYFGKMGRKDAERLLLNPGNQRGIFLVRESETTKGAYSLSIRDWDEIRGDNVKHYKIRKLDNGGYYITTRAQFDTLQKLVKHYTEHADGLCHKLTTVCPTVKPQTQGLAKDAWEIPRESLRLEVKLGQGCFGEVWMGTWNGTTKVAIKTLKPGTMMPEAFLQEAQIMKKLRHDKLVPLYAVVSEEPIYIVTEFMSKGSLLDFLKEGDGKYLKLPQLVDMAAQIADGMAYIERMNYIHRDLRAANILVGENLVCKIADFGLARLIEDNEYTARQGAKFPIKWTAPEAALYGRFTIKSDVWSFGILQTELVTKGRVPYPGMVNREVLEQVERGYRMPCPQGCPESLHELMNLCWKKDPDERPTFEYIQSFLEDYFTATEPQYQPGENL
UniProt Q6FIF0: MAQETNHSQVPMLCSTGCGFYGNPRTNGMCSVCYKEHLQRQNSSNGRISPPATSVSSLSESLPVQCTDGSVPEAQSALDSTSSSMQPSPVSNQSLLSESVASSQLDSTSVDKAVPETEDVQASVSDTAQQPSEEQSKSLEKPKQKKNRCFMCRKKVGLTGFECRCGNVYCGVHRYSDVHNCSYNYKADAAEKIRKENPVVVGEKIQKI
UniProt Q8N5A5: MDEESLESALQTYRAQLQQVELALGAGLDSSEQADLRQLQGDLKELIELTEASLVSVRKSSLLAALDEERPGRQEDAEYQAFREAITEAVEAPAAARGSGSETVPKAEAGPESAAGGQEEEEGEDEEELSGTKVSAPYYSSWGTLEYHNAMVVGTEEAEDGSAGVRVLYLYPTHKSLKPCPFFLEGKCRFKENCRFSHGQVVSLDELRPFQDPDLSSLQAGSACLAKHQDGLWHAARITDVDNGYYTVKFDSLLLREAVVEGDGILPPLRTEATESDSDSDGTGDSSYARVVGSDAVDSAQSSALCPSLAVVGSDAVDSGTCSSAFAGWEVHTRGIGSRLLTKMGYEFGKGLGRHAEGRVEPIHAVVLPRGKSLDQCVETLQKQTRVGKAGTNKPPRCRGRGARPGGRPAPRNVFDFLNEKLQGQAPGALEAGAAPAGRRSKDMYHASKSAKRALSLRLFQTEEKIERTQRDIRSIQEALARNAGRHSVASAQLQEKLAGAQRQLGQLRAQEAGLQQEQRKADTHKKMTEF
UniProt A8MPS7: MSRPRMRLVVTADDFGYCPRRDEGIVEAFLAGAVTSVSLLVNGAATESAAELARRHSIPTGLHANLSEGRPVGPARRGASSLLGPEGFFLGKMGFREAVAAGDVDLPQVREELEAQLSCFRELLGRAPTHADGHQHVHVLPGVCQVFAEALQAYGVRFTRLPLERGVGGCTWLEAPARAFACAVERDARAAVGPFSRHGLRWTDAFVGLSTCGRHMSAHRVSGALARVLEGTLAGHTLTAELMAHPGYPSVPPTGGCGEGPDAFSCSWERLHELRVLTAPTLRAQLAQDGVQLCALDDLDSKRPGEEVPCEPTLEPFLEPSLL
UniProt Q9NUE0: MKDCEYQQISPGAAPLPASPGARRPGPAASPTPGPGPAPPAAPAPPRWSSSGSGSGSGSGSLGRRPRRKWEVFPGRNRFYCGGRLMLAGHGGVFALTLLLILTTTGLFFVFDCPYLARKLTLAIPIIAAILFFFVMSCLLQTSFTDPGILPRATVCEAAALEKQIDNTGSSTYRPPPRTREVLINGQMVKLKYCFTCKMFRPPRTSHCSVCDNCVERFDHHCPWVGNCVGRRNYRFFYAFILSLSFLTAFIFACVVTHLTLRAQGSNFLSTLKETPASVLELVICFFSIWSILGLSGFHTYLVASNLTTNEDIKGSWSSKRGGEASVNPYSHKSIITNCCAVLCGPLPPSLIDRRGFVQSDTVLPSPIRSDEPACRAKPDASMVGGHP
UniProt Q8IZH2: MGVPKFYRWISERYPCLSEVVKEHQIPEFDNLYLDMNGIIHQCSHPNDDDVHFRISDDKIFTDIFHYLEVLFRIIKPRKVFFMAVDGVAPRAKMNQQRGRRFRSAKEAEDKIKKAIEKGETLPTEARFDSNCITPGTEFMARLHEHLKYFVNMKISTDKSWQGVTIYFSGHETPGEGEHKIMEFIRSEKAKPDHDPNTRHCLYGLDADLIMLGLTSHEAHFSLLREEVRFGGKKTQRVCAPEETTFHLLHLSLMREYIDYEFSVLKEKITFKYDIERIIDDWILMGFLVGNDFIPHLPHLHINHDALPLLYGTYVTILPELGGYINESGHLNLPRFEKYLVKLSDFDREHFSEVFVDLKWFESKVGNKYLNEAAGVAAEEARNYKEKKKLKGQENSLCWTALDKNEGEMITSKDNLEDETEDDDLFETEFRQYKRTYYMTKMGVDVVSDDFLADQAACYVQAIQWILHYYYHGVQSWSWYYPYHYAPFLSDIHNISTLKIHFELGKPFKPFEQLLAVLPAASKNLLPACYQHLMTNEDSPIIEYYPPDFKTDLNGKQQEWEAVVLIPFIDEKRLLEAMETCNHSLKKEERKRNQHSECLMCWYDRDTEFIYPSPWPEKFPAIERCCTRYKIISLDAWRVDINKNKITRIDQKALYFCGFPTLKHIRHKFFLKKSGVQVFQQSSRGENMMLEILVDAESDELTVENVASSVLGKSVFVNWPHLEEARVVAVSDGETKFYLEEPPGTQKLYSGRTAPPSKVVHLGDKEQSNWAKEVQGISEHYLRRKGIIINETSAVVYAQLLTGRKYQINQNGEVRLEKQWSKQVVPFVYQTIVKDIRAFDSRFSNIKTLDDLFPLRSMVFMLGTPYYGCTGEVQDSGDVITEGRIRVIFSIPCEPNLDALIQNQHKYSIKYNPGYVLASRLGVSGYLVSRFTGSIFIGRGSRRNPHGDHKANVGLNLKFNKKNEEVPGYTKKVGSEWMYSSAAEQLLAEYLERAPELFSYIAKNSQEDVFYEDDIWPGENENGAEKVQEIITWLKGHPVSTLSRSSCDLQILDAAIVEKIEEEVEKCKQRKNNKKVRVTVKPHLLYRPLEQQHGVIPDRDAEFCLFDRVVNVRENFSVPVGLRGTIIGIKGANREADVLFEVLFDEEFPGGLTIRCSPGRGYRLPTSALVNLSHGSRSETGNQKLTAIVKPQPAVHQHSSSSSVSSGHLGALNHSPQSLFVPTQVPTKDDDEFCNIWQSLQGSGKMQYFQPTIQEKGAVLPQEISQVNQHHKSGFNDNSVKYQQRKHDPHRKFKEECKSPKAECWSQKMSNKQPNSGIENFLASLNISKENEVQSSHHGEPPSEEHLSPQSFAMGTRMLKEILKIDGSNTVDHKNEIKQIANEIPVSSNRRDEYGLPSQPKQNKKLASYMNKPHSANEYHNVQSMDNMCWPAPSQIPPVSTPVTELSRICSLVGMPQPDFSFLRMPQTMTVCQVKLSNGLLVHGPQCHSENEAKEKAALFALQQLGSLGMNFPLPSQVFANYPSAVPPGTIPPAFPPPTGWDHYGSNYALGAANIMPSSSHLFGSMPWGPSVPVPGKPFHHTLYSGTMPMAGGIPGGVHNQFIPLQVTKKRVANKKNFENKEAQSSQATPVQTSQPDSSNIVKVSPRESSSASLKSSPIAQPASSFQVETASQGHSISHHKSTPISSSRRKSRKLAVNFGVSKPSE
UniProt O60315: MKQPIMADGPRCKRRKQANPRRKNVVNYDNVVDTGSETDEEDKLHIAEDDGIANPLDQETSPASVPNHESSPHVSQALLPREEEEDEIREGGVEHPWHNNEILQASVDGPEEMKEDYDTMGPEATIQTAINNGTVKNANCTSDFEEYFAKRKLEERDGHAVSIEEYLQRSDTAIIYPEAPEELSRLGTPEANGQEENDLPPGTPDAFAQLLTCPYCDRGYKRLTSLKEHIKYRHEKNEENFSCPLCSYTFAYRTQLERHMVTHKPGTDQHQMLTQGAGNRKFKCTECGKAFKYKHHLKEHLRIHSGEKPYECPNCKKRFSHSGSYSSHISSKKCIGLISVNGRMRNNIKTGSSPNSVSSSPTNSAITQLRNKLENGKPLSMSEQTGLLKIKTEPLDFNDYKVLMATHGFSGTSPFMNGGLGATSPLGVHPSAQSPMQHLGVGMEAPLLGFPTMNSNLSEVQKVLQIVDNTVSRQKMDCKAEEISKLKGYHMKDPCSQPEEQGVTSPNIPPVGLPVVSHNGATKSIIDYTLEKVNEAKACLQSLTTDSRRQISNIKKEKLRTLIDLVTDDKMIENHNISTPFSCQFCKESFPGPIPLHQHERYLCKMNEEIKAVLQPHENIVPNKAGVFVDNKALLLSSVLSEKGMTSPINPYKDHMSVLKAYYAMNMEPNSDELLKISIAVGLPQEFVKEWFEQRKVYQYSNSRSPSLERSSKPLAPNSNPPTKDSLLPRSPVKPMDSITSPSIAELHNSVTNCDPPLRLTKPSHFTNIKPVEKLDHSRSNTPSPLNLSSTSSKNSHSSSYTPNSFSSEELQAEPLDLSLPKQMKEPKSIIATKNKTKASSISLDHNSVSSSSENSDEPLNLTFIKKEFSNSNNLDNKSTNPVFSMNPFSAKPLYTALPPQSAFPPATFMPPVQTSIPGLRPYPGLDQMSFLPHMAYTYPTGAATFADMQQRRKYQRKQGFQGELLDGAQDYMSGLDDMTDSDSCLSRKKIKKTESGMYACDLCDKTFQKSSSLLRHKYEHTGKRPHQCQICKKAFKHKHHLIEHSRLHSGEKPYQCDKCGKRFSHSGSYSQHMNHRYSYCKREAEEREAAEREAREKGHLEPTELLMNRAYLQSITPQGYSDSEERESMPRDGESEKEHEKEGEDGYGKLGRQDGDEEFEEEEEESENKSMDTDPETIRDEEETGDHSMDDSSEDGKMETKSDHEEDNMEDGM
UniProt Q9BW85: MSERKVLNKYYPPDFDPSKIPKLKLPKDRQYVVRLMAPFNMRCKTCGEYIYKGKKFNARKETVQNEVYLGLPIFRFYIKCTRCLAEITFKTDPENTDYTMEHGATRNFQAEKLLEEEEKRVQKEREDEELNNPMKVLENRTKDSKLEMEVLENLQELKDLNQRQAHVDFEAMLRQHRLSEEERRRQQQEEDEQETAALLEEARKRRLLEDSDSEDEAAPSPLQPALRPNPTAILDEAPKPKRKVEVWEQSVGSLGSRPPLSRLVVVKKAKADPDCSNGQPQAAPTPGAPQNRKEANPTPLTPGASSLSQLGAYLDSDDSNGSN
UniProt O76080: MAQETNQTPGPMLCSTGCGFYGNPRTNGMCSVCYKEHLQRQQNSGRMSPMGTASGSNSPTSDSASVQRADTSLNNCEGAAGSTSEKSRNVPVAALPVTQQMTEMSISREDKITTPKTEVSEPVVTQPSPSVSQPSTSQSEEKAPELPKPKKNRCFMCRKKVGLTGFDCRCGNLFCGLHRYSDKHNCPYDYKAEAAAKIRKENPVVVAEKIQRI
UniProt Q7Z7L7: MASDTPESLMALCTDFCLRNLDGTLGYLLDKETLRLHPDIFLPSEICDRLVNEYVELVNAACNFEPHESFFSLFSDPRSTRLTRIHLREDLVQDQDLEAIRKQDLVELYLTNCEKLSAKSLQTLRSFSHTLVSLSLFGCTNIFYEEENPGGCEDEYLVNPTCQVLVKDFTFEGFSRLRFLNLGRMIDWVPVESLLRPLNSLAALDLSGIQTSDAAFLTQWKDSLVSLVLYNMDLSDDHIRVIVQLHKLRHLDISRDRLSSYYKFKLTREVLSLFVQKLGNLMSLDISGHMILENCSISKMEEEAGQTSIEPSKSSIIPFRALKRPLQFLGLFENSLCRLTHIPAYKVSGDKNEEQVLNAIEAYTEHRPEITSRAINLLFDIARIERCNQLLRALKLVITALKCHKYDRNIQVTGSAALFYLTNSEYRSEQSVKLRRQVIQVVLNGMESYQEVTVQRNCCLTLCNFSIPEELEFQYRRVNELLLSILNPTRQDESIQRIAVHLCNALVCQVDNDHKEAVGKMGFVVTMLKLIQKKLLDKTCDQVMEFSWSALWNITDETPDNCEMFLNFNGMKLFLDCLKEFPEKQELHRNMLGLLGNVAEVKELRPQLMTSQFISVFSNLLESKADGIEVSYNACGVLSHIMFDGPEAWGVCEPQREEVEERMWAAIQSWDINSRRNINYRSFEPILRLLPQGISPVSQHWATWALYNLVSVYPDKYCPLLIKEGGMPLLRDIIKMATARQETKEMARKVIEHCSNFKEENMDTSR
UniProt Q96GY0: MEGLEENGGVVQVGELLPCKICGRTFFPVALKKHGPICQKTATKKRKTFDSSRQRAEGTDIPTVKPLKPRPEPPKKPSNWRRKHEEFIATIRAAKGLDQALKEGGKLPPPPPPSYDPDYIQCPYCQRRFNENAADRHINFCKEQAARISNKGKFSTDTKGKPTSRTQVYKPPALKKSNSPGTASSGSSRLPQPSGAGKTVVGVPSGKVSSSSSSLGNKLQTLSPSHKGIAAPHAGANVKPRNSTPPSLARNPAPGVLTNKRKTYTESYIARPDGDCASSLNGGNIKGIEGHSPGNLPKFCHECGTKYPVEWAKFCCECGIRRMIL

compound: C=CC(=O)N1CCC[C@@H](n2nc(-c3ccc(Oc4ccccc4)cc3)c3c(N)ncnc32)C1 [ibrutinib]; assay: log2 fold change, soluble protein after heating vs DMSO (PISA); higher = thermal stabilisation; K562 lysate, 10 uM; active = over 0.2 and 3.5 SD of the protein, either way, in both replicates (recomputed)
Procedure, shortened: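 K562 pellets were dounce-homogenised in PBS pH 7.4 with 1 mM MgCl2, and the crude extract at 1 mg/mL protein was treated with 10 μM compound for 30 min. Aliquots were heated for 3 min across 48°C-58°C, pooled, and brought to 0.5% NP-40 at 4°C; soluble protein was the supernatant after 21,000xg for 90 min. Soluble protein was quantified by TMTpro 16plex LC-MS/MS with channel sums equalised, and reported as log2 fold change in thermal stability against DMSO controls, with values from duplicates.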

log2 fold change, active:
YES1 (UniProt P07947) 0.988

log2 fold change, inactive:
XRCC5 (UniProt P13010) -0.011
ZC3H7B (UniProt Q9UGR2) 0.051
YLPM1 (UniProt P49750) 0.028
ZFAND6 (UniProt Q6FIF0) 0.049
ZGPAT (UniProt Q8N5A5) 0.066
YBX2 (UniProt Q9Y2T7) -0.042
ZC3H13 (UniProt Q5T200) 0.046
YOD1 (UniProt Q5VVQ6) 0.114
YDJC (UniProt A8MPS7) 0.024
ZDHHC18 (UniProt Q9NUE0) -0.103
ZBTB14 (UniProt O43829) 0.004
XRN1 (UniProt Q8IZH2) -0.113
ZEB2 (UniProt O60315) -0.134
XPR1 (UniProt Q9UBH6) 0.001
YJU2 (UniProt Q9BW85) 0.062
YME1L1 (UniProt Q96TA2) -0.04
YPEL5 (UniProt P62699) -0.001
ZC3H18 (UniProt E7ERS3) 0.008
ZFYVE16 (UniProt Q7Z3T8) 0.046
ZFAND5 (UniProt O76080) -0.008
ZER1 (UniProt Q7Z7L7) 0.016
ZC2HC1A (UniProt Q96GY0) -0.029
YTHDF2 (UniProt Q9Y5A9) -0.043

Taken from the results shown for reference:
log2 fold change, inactive:
ZFAND5 (UniProt O76080) -0.008
ZER1 (UniProt Q7Z7L7) 0.016
